From PubChem BioAssay AID504834 (National Center for Advancing Translational Sciences (NCATS), 2011)
The whole screen tested about 320,000 compounds, of which about 22,000 (6.9%) were called active. This list was built around the results that the source calls inconclusive (neither active nor inactive); the mix of calls is not that of the screen. The call rests on the fitted dose curve; in most records, active means well fitted inhibition curve with a large enough effect; inconclusive means small, poorly fitted or top-dose-only effect, or another doubt; inactive means no such curve, though single readings can be large or run the other way. Potencies beside an inconclusive call are fits to weak or partial responses and may not hold up.

Assay: Primary qHTS for delayed death inhibitors of the malarial parasite plastid, 96 hour incubation
Conditions: P. falciparum luciferase reporter growth; series mostly up to 28.7 µM
Summary of the method: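 Parasite growth measured via integrated firefly luciferase reporter in P. falciparum. Infected erythrocytes at 2% hematocrit, 0.05% parasitemia final were treated 96 hours at 37 C under 5% CO2, and luminescence was read.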
Potency means the concentration at half of the fitted maximal effect.

Compound	Potency
Cc1c(CC(=O)O)c(=O)oc2c(C)c3occ(-c4ccc(Br)cc4)c3cc12	inconclusive: 9.28 µM [inhibitor, partial curve, poor fit]
CCCOc1ccc(C2C(C(=O)c3cc4ccccc4o3)=C(O)C(=O)N2c2cc(C)on2)cc1 (stereo not given)	inconclusive: 8.28 µM [inhibitor, partial curve]
COc1cc(/C=C2\C(=N)N3N=C(S(C)(=O)=O)SC3=NC2=O)ccc1OCCOc1ccccc1C	inconclusive: 10.4 µM [inhibitor, partial curve, poor fit]
Cc1ccc(S(=O)(=O)Oc2ccc(/C=C3/C(=N)N4C(=NC3=O)SN=C4S(C)(=O)=O)cc2)cc1	inconclusive: 18.5 µM [inhibitor, single point]
O=C(Nc1ccc(C(=O)O)cc1)/C(=C\C=C\c1ccccc1)NC(=O)c1cccc(Br)c1	inconclusive: 10.4 µM [inhibitor, single point]
